Among the data in paper PMC10803754 are binding values, retold here.

Results are given in words; binding and its absence hold for the method and conditions named. In cells and extracts the contact can be indirect. Some entries that bind do so weakly or less than the wild type. Tags and fused reporters may be left off the sequences shown.

Assay [1] addresses T1, Multicilin tagged at the N-terminus with 3xFLAG (mouse) (mouse) (UniProt Q3UZ45).
T1 sequence: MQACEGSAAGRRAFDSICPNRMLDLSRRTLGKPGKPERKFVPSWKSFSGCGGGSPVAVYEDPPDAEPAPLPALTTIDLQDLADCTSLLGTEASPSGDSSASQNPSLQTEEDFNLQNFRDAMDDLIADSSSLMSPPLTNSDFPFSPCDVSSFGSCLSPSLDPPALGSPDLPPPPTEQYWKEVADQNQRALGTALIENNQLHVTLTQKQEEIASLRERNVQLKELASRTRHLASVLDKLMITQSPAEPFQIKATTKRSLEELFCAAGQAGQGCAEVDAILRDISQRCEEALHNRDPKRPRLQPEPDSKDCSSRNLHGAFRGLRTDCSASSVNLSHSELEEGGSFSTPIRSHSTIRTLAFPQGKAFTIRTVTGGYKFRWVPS
Description: co-IP; FLAG M2 agarose precipitation from lysates of MEFs infected with Ad5 FLAG-MCI alone; eluted with FLAG peptide; immunoblot for Rbl1, Rbl2 and FLAG.

Assay [2] deals with T1, Multicilin tagged at the N-terminus with 3xFLAG (mouse) (mouse). Description: co-IP; FLAG M2 agarose precipitation from lysates of MEFs infected with Ad5 FLAG-MCI+E2f4 (wildtype E2f4 co-expressed); eluted with FLAG peptide; immunoblot for Rbl1, Rbl2 and FLAG. A general note: In western blotting, separated proteins are transferred to a membrane and probed.

B1: Retinoblastoma-like protein 2 (RBL2), mouse (protein, UniProt Q64700 1-1135)
chain: MASGGNQSPPPPPAAAASSEEEEEDGDAADRAQPAGSPSHQIQQRFEELCSRLNMDEAARAEAWSSYRSMSESYTLEGNDLHWLACALYVACRKSVPTVSKGTAEGNYVSLTRILRCSEQSLIEFFNKMKKWEDMANLPPHFRERTERLERNFTVSAVIFKKYEPIFQDIFKYPQEEQPRQQRGRKQRRQPCTTSEIFHFCWVLFIYAKGNFPMISDDLVNSYHLLLCALDLVYGNALQCSNRKELVNPNFKGLSEDCHPKDSKASSDPPCVIEKLCSLHDGLVLEAKGIKEHFWKPYIRKLFEKKLLKGKEENLTGFLEPGNFGESFKAVNKAYEEYVLAAGNLDERVFLGEDAEEEVGTLSRCLSAASGTESAERTQMRDILQQHLDKSKALRVCTPLTGVRYVQENSPCVTPVSTAAHSLSRLHTMLSGLRNAPSEKLERILRSCSRDPTQAIADRLKEMYEIYSQHFQPDENFSNCAKEIANKHFRFAEMLYYKVLESVIEQEQKRLGDMDLSGVLEHDAFHRSLLACCLEVVAFSHKPPGNFPFIAEIFDVPHYHFYKVIEVFIRAEDGLCREVVKHLNQIEEQILDHLAWKTKSPLWDRIRDNENRVPTCEEVMPPQNLERTDEIYIAGSPLTPRRVGEVRADAGGLGRSITSPTTLYDRYSSPTVSTTRRRLFENDSPSEGSTSGRIPPQPLVNAVPVQNVPGETVSVTPVPGQTLVTMATATVTANNGQTVTIPVQGIANENGGITFFPVQVNVGGQAQAVAGSIQPLSAQALAGSLSSQQVTGTTLQVPGPVAIQQISPGGQQQNPGQPLTSSSIRPRKTSSLALFFRKVYYLAGVRLRDLCIKLDISDELRKKIWTCFEFSIIQCTELMMDRHLDQLLMCAIYVMAKVTKEDRSFQNIMRCYRTQPQARSQVYRSVLIKGKRRNSGSSESRSHQNSPTELNTDRASRDSSPVMRSNSTLPVPQPSSAPPTPTRLTGASSDVEEEERGDLIQFYNNIYRKQIQAFAMKYSQANAQTDTPPLSPYPFVRTGSPRRVQLSQSHPIYISPHNNEAMPSPREKIFYYFSNSPSKRLREINSMIRTGETPTKKRGILLDDGSESPAKRICPENHSALLRRLQDVANDRGSQ
B1: the binding entry in assay [1] and in assay [2] was “binds” each time.
